Measurements as given in US6265443A, “Method for treating neuronal injury with carboxyfullerene” (priority 1997, dated 2001).

Assay: Spin-label/EPR membrane parameters (5- or 16-doxyl ketostearic acid in brain lipids)
Parameters: species or system mouse
Details: 5-doxylstearic acid; for Order parameter: control 0.88; for Correlation time: control 5.1
Procedure: Values are mean±SEM, n=8-12 per condition. I=p<0.05 vs. untreated injury condition, using ANOVA followed by Student-Newman-Keuls test for multiple comparisons. **=p<0.05 R-3b different than O-3a. […] The spin labels were added to lipids extracted from adult mouse brain at a ratio of 1:100. EPR settings were the same as those listed in the legend for FIGS. 9A and 9B.
^a Order parameter, S = a(T_.cent. - T .cent.)/(T - T ),
^b Correlation time, tc = 6.5 × 10^-10 wo [(ho
^c Lipid/aqueous partition factor, f = hL /hA, where hL

Structure (SMILES)	Order parameter	Correlation time [ns]
O=C(O)C1(C(=O)O)C23c4c5c6c7c8c4-c4c2c2c9c%10c%11c%12c(c-5c5c%13c%14c%15c%16c%17c(c-7c7c%18c%19c%20c%21c(c4C%204C(C(=O)O)(C(=O)O)C874)c2c2c9c4c%11c7c(c%13%12)c%14c8c%16c9c(c%18%17)c%19c%11c%21c2c2c4c7c8c9c%112)C%152C(C(=O)O)(C(=O)O)C652)C%1013 (stereo not shown) [O-3a]	0.84 ± 0.01	5.7 ± 0.5
O=C(O)C1(C(=O)O)C23c4c5c6c7c8c9c%10c%11c%12c%13c%14c%15c(c6c6c4c4c%16c%17c%18c(c%19c%20c2c5c8c2c%20c5c%19c8c%19c%20c(c%21c%12c%12c%22c%23c(c(c%188)C%198C(C(=O)O)(C(=O)O)C%21%228)c%17c8c4c6c%15c(c%12%14)c%238)c%11c(c92)c%205)C%1613)C71C(C(=O)O)(C(=O)O)C%13%101 (stereo not shown) [R-3b]	0.86	4.5
